Test results as given in patent US20250223358A1.
Substitutions are numbered along the chain they refer to. These are yes or no findings as the source states them, for the method shown. Some binding calls cover weakened binding; strength is not graded here.

Protein sequences, listed by entry. Tags and fused reporters are not part of them. Lines headed by an entry give the natural chain unless they say otherwise; changes in a name come on top.
UniProt Q95LI5: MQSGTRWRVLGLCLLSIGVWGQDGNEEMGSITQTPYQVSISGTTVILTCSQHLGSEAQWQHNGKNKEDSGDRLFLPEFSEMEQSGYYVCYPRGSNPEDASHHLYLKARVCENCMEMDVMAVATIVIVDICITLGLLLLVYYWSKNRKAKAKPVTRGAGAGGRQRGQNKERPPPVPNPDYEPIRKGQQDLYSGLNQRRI
UniProt Q95LI8: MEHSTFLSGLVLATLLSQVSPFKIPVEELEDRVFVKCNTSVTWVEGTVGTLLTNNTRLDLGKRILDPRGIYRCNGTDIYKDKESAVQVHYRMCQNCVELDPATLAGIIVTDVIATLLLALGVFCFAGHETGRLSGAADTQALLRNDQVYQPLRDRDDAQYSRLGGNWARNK
UniProt Q95LI7: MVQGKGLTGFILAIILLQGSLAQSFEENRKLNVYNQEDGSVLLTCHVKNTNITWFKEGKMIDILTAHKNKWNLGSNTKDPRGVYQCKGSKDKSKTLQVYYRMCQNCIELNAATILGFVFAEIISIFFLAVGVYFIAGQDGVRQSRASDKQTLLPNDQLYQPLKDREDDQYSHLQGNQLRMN
UniProt P07766: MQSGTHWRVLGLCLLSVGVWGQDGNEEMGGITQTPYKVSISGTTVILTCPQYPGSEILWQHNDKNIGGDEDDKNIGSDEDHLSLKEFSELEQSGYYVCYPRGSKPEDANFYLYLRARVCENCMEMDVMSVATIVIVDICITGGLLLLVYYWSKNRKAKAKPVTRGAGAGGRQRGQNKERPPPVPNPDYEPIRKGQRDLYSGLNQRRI
UniProt P04234: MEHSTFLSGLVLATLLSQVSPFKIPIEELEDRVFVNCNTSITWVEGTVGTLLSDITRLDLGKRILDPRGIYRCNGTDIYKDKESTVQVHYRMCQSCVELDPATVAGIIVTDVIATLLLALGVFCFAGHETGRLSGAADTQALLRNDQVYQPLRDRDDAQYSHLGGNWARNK
UniProt P09693: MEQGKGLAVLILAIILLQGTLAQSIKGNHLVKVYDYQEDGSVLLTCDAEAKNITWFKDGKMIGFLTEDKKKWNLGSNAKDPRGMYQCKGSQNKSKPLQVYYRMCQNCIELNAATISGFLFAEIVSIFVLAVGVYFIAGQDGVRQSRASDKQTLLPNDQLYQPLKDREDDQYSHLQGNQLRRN

B1: ch127E2D3 (antibody, V domains shown)
VH: QVQLQQPGTELVKPGASVKLSCKASGYTFTSYWMHWVKQRPGEGLEWIGNIYPGSSSINYNEKFKSKATLTVDKSSSTAYMQLSSLTSEDSAVYYCARDRSSQYYFDYWGQGTTLTVSS
VL: DIVMSQSPSSLAVSAGEKVTMSCKSSQSLLNSRTRKNYLAWYQQKPGQSPKLLIYWASTRESGVPDRFTGSGSGTDFTLTISSVQAEDLAVYYCTQSYNLRTFGGGTKLEIK
B2: ch124E3D6 (antibody, V domains shown)
VH: B1 VH with E43Q, Y52N, G54S, S55N, S56G, S57D, I58T
VL: B1 VL with T95K
B3: ch140D2B10 (antibody, V domains shown)
VH: B1 VH with E43Q, Y52N, G54S, S55N, S56G, S57E, I58S, S91Y
VL: B1 VL with T95K, N99T
B4: ch133B4C7 (antibody, V domains shown)
VH: B1 VH with E43Q, Y52N, G54S, S55N, S56G, S57D, I58T, Y60F
VL: B1 VL with K24N, T95K, N99T
B5: ch126A11A4 (antibody, V domains shown)
VH: QVQLQQPGTELVKPGASVKLSCKASGYTFTSYWMHWVKQRPEQGLEWIGNINPSNGDTNYNEKFKSKATLTVDKASNTAYMQLSSLTSEDSAVYYCGRDRSSQYYFDYWGQGTTLTVSS
VL: B1 VL with Y93F, T95K, Y98F, N99I
B6: ch147C6F3 (antibody, V domains shown)
VH: B5 VH with T30D, E42G, I51L, D57E, T58I, S66H, A75S, N77S, G97S
VL: B1 VL with M21L, P46S, I54M, S82T, S83N, T95K, N99I
B7: hu40E9-L5H7 (antibody, V domains shown)
VH: EVQLVQSGAEVKKPGSSVKVSCKASGYTFSSYVIHWVRQAPGQGLEWMGYINPGNGVIKYNEKFKGRVTLTSDKSTSTAYMELSSLRSEDTAVYYCARDSYSSYDGFAYWGQGTLVTVSS
VL: EIVLTQSPDFQSVTPKEKVTITCSASSSVSYMHWYQQKPDQSPKRLIYDTSKLASGVPSRFSGSGSGTDFTLTINSLEAEDAATYYCQQWRSSPPTFGGGTKVEIK
B8: hu40E9-L2H9 (antibody, V domains shown)
VH: B7 VH with G54Y, N55S, G56D, D99E, Y101F, S102Y
VL: B7 VL with R91S, S93N
B9: hu40E9-L2H7 (antibody, V domains shown)
VH: B7 VH
VL: B7 VL with R91S, S93N
B10: hu40E9-L5H3 (antibody, V domains shown)
VH: B7 VH with G54Y, G56D, S102Y
VL: B7 VL
B11: hu40E9-L6H3 (antibody, V domains shown)
VH: B7 VH with G54Y, G56D, S102Y
VL: B7 VL with S93W
B12: hu40E9-L2H16 (antibody, V domains shown)
VH: B7 VH with S31D, G54Y, G56D, S102Y
VL: B7 VL with R91S, S93N
B13: hu40E9-L4H7 (antibody, V domains shown)
VH: B7 VH
VL: B7 VL with S93R
B14: hu40E9-L4H3 (antibody, V domains shown)
VH: B7 VH with G54Y, G56D, S102Y
VL: B7 VL with S93R
B15: hu40E9-L2H10 (antibody, V domains shown)
VH: B7 VH with G54Y, G56D, S102Y, D105E, G106A
VL: B7 VL with R91S, S93N
B16: hu40E9-L2H6 (antibody, V domains shown)
VH: B7 VH with G54Y, G56D, D99E, Y101F
VL: B7 VL with R91S, S93N
B17: hu40E9-L2H11 (antibody, V domains shown)
VH: B7 VH with G54Y, G56D, S102Y, D105R, G106A
VL: B7 VL with R91S, S93N
B18: hu40E9-L5H8 (antibody, V domains shown)
VH: B7 VH with G56D, D99E
VL: B7 VL
B19: hu40E9-L4H8 (antibody, V domains shown)
VH: B7 VH with G56D, D99E
VL: B7 VL with S93R
B20: hu40E9-L2H8 (antibody, V domains shown)
VH: B7 VH with G56D, D99E
VL: B7 VL with R91S, S93N
B21: hu40E9-L2H15 (antibody, V domains shown)
VH: B7 VH with G54Y, G56D, D99G, S102Y
VL: B7 VL with R91S, S93N
B22: hu40E9-L2H12 (antibody, V domains shown)
VH: B7 VH with G54Y, G56D, S100D, S102Y
VL: B7 VL with R91S, S93N
B23: hu40E9-L2H13 (antibody, V domains shown)
VH: B7 VH with G54Y, G56D, S100G, S102Y
VL: B7 VL with R91S, S93N
B24: hu147E2-L3H4 (antibody, V domains shown)
VH: EVQLVQSGAEVKKPGSSVKVSCKASGYTFTSYWMHWVRQAPGQGLEWIGNINPSNGATNYNEKFKSRATLTVDKSTSTAYMELSSLRSEDTAVYYCARDRSSQYYFDYWGQGTTVTVSS
VL: DIQMTQSPSSLSASVGDRVTITCKSSQSLLNSRSRKNYLAWYQQKPGKAPKLLIYWASTRESGVPSRFSGSGSGTDFTLTISSLQPEDFATYYCTQSYTLRTFGGGTKVEIK
B25: hu147E2-L3H2 (antibody, V domains shown)
VH: B24 VH with I48M, A68V, L70I, V72A
VL: B24 VL
B26: hu147E2-L1H4 (antibody, V domains shown)
VH: B24 VH
VL: DIVMTQSPDSLAVSLGERATINCKSSQSLLNSRSRKNYLAWYQQKPGQPPKLLIYWASTRESGVPDRFSGSGSGTDFTLTISSLQAEDVAVYYCTQSYTLRTFGGGTKVEIK
B27: hu147E2-L2H2 (antibody, V domains shown)
VH: B24 VH with I48M, A68V, L70I, V72A
VL: B26 VL with P49S
B28: 40-C12-C10-E9 (antibody, V domains shown)
VH: EVQLQLSGPELVKPGASVKMSCKASGYTFSSYVIHWVKQKPGQGLEWIGYINPYNDVIKYNEKFKGKATLTSDKSSSTAYMELSSLTSEDSAVYYCARDSYYSYDGFAYWGQGTLVTVSA
VL: QIVLTQSPAIMSASPGEKVTMTCSASSSVSYMHWYQQKSGTSPKRWIYDTSKLASGVPARFSGSGSGTSYSLTISSMEAEDAATYYCQQWSSNPPTFGGGTKVEIK
B29: hu147E2-L1H2 (antibody, V domains shown)
VH: B24 VH with I48M, A68V, L70I, V72A
VL: B26 VL
B30: hu147E2-L2H4 (antibody, V domains shown)
VH: B24 VH
VL: B26 VL with P49S
B31: 16-F2-C11-D9 (antibody, V domains shown)
VH: EVQLQQSGPELVKPGASVKMSCKASGYTFTDFNIHWVKQSLGKSLEWIGYINPNDGGSTYNQKFKGKATLTINKSSSSAYMELRSLTSEDSAVYYCAIPFLDSWGQGTSVTVSS
VL: TLMMTQSPSSMYASLGERVTITCKASQDINSYLRWYQQKPGKSPKTLIYGASSLVDGVPSRFSGRGSGQDYSLTISSLEYEDMGIYYCLQYDEVPLTFGAGTKLELK
B32: 20-E11-E11-C2 (antibody, V domains shown)
VH: EVQLQQSGPEVVKPGASVKISCKASGYTFTDYYMNWVKQSHGKNLEWIGDINPIHGGISSNQKFSDKATLTVDKSSNTAYLELRSLTSEDSAIYYCARRIYYGYDWYFDVWGTGTTVTVSS
VL: DIVLSQSPAIMSASPGERVTMTCSASSSVTSRYFFWYQQKPGSSPKLWIYSTSNLASGVPVRFSGSGSGTSYSLTINNMAAEDAATYYCQQYSTSPSTFGAGTKLELK
B33: ch40-C12-C10-E9 (antibody, V domains shown)
VH: B28 VH
VL: B28 VL
B34: ch147E11E2 (antibody, V domains shown)
VH: B5 VH with A16T, E42G, D57A, A75S, N77S, G97A
VL: B1 VL with T34S, N99T

Tests used:
[1] = molecular target: cynomolgus CD3 (cynomolgus (Macaca fascicularis)) (UniProt Q95LI5+Q95LI8+Q95LI7); test: FACS on 293T-cynoCD3mix cells
[2] = molecular target: T1, human CD3 (human) (UniProt P07766+P04234+P09693); test: FACS on Jurkat cells
[3] = molecular target: T1, human CD3 (human); test: FACS on 293T-hCD3mix cells

Binder	binding [1]	binding [2]	binding [3]
B1	binds		
B2	binds		
B3	binds		
B4	binds		
B5	binds	binds	
B6	binds	binds	
B7		binds	
B8		binds	
B9		binds	
B10		binds	
B11		binds	
B12		binds	
B13		binds	
B14		binds	
B15		binds	
B16		binds	
B17		binds	

Binder	binding [1]	binding [2]	binding [3]
B18		binds	
B19		binds	
B20		binds	
B21		binds	
B22		binds	
B23		binds	
B24	binds	binds	
B25	binds	binds	
B26	binds		
B27	binds		
B28			binds
B29	binds		
B30	binds		
B31			binds
B32			binds
B33		binds	
B34	binds	binds	
